# From PubChem BioAssay AID1347076 (National Center for Advancing Translational Sciences (NCATS), 2019)
# About 13,000 (3.2%) of roughly 400,000 compounds were called active. Inconclusive means that the source gave no clear call. Such entries were picked first, then a sample of the others. Calls come from the whole dose curve; as a rule, active = well fitted cell-killing curve with a large enough effect; inconclusive = small, poorly fitted or top-dose-only effect, or effect the other way; inactive = flat fitted curve, though single readings scatter. Potencies beside an inconclusive call are fits to weak or partial responses and may not hold up.
# Test: qHTS assay for MDR1-selective chemotherapeutics: Primary screen using the drug-selected MDR subline cells KB-V1; note: nearly all actives have a fitted effect of over 60% in size
# Details: KB-V1 MDR cells viability, CellTiter-Glo, 72 h; series mostly up to 46.1 µM
# Outline: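 KB-V1, DMEM (no phenol red) + 10% FBS; cpd pin-transferred, titration series; 72 h, 37 degrees C; CellTiter-Glo, luminescence. Data normalized, curve-fit.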
# Potency is the fitted concentration of half-maximal effect.
row,Compound,Potency
1,O=C(CC1C(=O)NCCN1C(=O)c1ccc([N+](=O)[O-])cc1)Nc1ccc(F)cc1 (stereo not drawn),"inconclusive: 3.66 µM [rising, full curve, poor fit]"
2,COC(=O)c1cc(NC(=O)c2cc(C(C)(C)C)nn2Cc2ccc(F)cc2)ccc1N1CCOCC1,"inconclusive: 8.2 µM [cytotoxic, partial curve]"
3,CCOC(=O)c1cn(CC(=O)Nc2ccc(C)cc2)nn1,inactive
4,O=C(c1ccco1)N1CCCC(c2nc3c(nnn3Cc3c(Cl)cccc3Cl)c(=O)[nH]2)C1 (stereo not drawn),inactive
5,O=C(CCn1c(=O)oc2ccccc21)N1CCCCCC1,"inconclusive: 23.1 µM [cytotoxic, single point]"
6,N#CC1=C(N)OC2=C(C(=O)CCC2)C1c1cc2c(cc1Cl)OCO2 (stereo not drawn),"inconclusive: 29.1 µM [rising, single point]"
7,Cc1cccc(S(=O)(=O)N(C)C[C@H]2OCc3cnnn3CCCC(=O)N([C@H](C)CO)C[C@@H]2C)c1,"inconclusive: 0.231 µM [rising, full curve]"
8,CN(C)CCCNC(=O)/C(=C\c1ccc(-c2ccc(Br)cc2)o1)NC(=O)c1ccccc1,inactive
9,COc1ccc(N2CCN(C(=O)CNC(=O)c3ccc4ccccc4c3)CC2)cc1,"inconclusive: 14.6 µM [rising, partial curve, poor fit]"
10,OCC[C@H]1C[C@H](O)[C@@H](O)[C@@]2(OCc3ccccc32)O1,"inconclusive: 14.6 µM [rising, single point]"
11,CCOC(=O)c1ccc(NS(=O)(=O)c2cc(-c3nnnn3C(C)C)ccc2OC)cc1,inactive
12,COc1ccc(CCNC(=O)COc2ccc(S(=O)(=O)N3CCOCC3)cc2C)cc1,"inconclusive: 8.2 µM [cytotoxic, partial curve]"
13,COc1ccc(NC(=S)NCc2cccnc2)cc1OC,"inconclusive: 23.1 µM [rising, single point]"
14,CCN(CC)S(=O)(=O)c1ccc(NC(=O)COC(=O)c2cc(S(=O)(=O)Nc3ccc(OC)cc3)ccc2O)cc1,inactive
15,CN(C)C(CNC(=O)c1ccc(S(=O)(=O)Nc2cccc(C(F)(F)F)c2)cc1)c1ccco1 (stereo not drawn),"inconclusive: 16.4 µM [cytotoxic, single point]"
16,Cc1c(Cl)cccc1NC(=O)C1CC(=O)N(C2CCCC2)C1 (stereo not drawn),"inconclusive: 0.259 µM [rising, full curve, poor fit]"
17,COc1ccc(C)cc1-n1c(N)c(C#N)c(C#N)c1-c1ccc(OC)c(OC)c1OC,"inconclusive: 23.1 µM [cytotoxic, single point]"
18,CC(C)c1ccc(NC(=O)C2Cc3c(-c4ccccc4Oc4ccccc4)ccnc3O2)cc1 (stereo not drawn),"inconclusive: 11.6 µM [cytotoxic, partial curve, poor fit]"
19,Cc1cccc(-c2noc(C3CCCCC3)n2)c1,"inconclusive: 29.1 µM [rising, single point]"
20,CC(CCNC(=O)c1ccccc1)(CCNC(=O)c1ccccc1)[N+](=O)[O-],active: 14.6 µM
21,COc1ccc(/C=N/NC(=O)CCc2ccccc2)cc1O,"inconclusive: 18.4 µM [cytotoxic, single point]"
22,CC(C)Oc1cccc(NC(=O)c2cnccc2C(F)(F)F)c1,inactive
23,COC(=O)c1ccc(CCc2cc(O)ccc2O)cc1,"inconclusive: 29.1 µM [cytotoxic, single point]"

# No new results follow: 17 of the compounds above.
row,Compound,Potency
4,O=C(c1ccco1)N1CCCC(c2nc3c(nnn3Cc3c(Cl)cccc3Cl)c(=O)[nH]2)C1 (stereo not drawn),inactive
5,O=C(CCn1c(=O)oc2ccccc21)N1CCCCCC1,"inconclusive: 23.1 µM [cytotoxic, single point]"
6,N#CC1=C(N)OC2=C(C(=O)CCC2)C1c1cc2c(cc1Cl)OCO2 (stereo not drawn),"inconclusive: 29.1 µM [rising, single point]"
7,Cc1cccc(S(=O)(=O)N(C)C[C@H]2OCc3cnnn3CCCC(=O)N([C@H](C)CO)C[C@@H]2C)c1,"inconclusive: 0.231 µM [rising, full curve]"
8,CN(C)CCCNC(=O)/C(=C\c1ccc(-c2ccc(Br)cc2)o1)NC(=O)c1ccccc1,inactive
9,COc1ccc(N2CCN(C(=O)CNC(=O)c3ccc4ccccc4c3)CC2)cc1,"inconclusive: 14.6 µM [rising, partial curve, poor fit]"
10,OCC[C@H]1C[C@H](O)[C@@H](O)[C@@]2(OCc3ccccc32)O1,"inconclusive: 14.6 µM [rising, single point]"
11,CCOC(=O)c1ccc(NS(=O)(=O)c2cc(-c3nnnn3C(C)C)ccc2OC)cc1,inactive
12,COc1ccc(CCNC(=O)COc2ccc(S(=O)(=O)N3CCOCC3)cc2C)cc1,"inconclusive: 8.2 µM [cytotoxic, partial curve]"
13,COc1ccc(NC(=S)NCc2cccnc2)cc1OC,"inconclusive: 23.1 µM [rising, single point]"
14,CCN(CC)S(=O)(=O)c1ccc(NC(=O)COC(=O)c2cc(S(=O)(=O)Nc3ccc(OC)cc3)ccc2O)cc1,inactive
15,CN(C)C(CNC(=O)c1ccc(S(=O)(=O)Nc2cccc(C(F)(F)F)c2)cc1)c1ccco1 (stereo not drawn),"inconclusive: 16.4 µM [cytotoxic, single point]"
16,Cc1c(Cl)cccc1NC(=O)C1CC(=O)N(C2CCCC2)C1 (stereo not drawn),"inconclusive: 0.259 µM [rising, full curve, poor fit]"
17,COc1ccc(C)cc1-n1c(N)c(C#N)c(C#N)c1-c1ccc(OC)c(OC)c1OC,"inconclusive: 23.1 µM [cytotoxic, single point]"
18,CC(C)c1ccc(NC(=O)C2Cc3c(-c4ccccc4Oc4ccccc4)ccnc3O2)cc1 (stereo not drawn),"inconclusive: 11.6 µM [cytotoxic, partial curve, poor fit]"
19,Cc1cccc(-c2noc(C3CCCCC3)n2)c1,"inconclusive: 29.1 µM [rising, single point]"
20,CC(CCNC(=O)c1ccccc1)(CCNC(=O)c1ccccc1)[N+](=O)[O-],active: 14.6 µM

# Going on with the list:

row,Compound,Potency
1,Cc1ccc(N(CC(=O)NCCc2ccccc2)S(=O)(=O)c2c(C)noc2C)cc1,"inconclusive: 9.2 µM [cytotoxic, partial curve]"
2,O=C1CCCc2oc3ccc(NS(=O)(=O)c4cccc5cccnc45)cc3c21,"inconclusive: 18.4 µM [cytotoxic, partial curve]"
3,O=C1N(c2ccccc2C(F)(F)F)O[C@]1(c1ccccc1)C1CCCC1,inactive
4,N/C(Cc1ccc(Cl)cc1)=N\OC(=O)c1ccccc1,inactive
5,COc1cc2c(cc1OC)CN(CC(=O)Nc1ccc(Cl)cc1Cl)CC2,"inconclusive: 16.4 µM [cytotoxic, partial curve, poor fit]"
6,CCOC(=O)Nc1cccc(Nc2ccccc2)c1,inactive
7,CCCSC1=N/C(=C\c2ccc([N+](=O)[O-])o2)C(=O)S1,inactive
8,Cc1nn(-c2ccccc2)c(C)c1C(=O)Nc1nnc(-c2ccco2)o1,active: 5.8 µM
9,O=C(O)CSc1cc(C(=O)c2cc(F)ccc2O)cn2c(=O)c3c(-c4ccccc4)csc3nc12,inactive
10,COc1ccc(CNC(=O)Cn2c(=O)n3nc(-c4ccc(OC)cc4)nc3c3ccccc32)cc1,"inconclusive: 25.9 µM [rising, single point]"
11,N#Cc1ccc(-c2ccco2)nc1SCc1ccccc1,"inconclusive: 18.4 µM [cytotoxic, partial curve, poor fit]"
12,Cc1nc(N=Nc2ccc(O)cc2)n[nH]1,"inconclusive: 16.4 µM [cytotoxic, partial curve]"
13,COc1ccc(-n2cc(-c3ccccc3)c3c(=O)[nH]cnc32)cc1,inactive
14,COc1ccc2nc3cc(Cl)ccc3c(Nc3ccc(O)c(CN4CCN(C)CC4)c3)c2c1,"inconclusive: 20.6 µM [cytotoxic, single point]"
15,CCc1cccc(NC(=O)CSc2nnc(Cc3ccc(OC)cc3)c(=O)[nH]2)c1,"inconclusive: 29.1 µM [rising, single point]"
16,CC1=CC(C)(C)NC(=S)N1c1ccc(C)cc1C,"inconclusive: 29.1 µM [cytotoxic, partial curve, poor fit]"
17,O=C(COc1ccc(S(=O)(=O)NCc2ccccc2)cc1Cl)N1CCOCC1,"inconclusive: 16.4 µM [cytotoxic, single point]"
18,CC(=O)c1cccc(NS(=O)(=O)c2ccc3[nH]c4c(c3c2)CCCCC4)c1,inactive
19,Cc1nn(Cc2c(Cl)cccc2Cl)c(C)c1NC(=O)/C=C/c1cnn(C)c1C,"inconclusive: 11.6 µM [cytotoxic, partial curve, poor fit]"
20,Cc1cccc(-c2nc(CN3CCCC(C(=O)NC4CCCC4)C3)c(C)o2)c1 (stereo not drawn),active: 9.2 µM
21,CN(c1ccccc1C(=O)N1CCc2ccccc2C1)S(C)(=O)=O,"inconclusive: 20.6 µM [cytotoxic, partial curve, poor fit]"
22,NC(=S)NNc1ccnc2cc(Cl)ccc12,"inconclusive: 29.1 µM [cytotoxic, partial curve, poor fit]"
23,CN(CC(=O)Nc1ccccc1Cl)C(=O)CSc1nc2ccccc2s1,active: 16.4 µM

row,Compound,Potency
1,COc1ccccc1NC(=O)CSc1nncs1,inactive
2,Cc1sc2ncnc(N3CCC(C(=O)NNC(=O)COc4ccccc4Cl)CC3)c2c1C,"inconclusive: 29.1 µM [cytotoxic, single point]"
3,CCOC(=O)c1c(NC(=O)CN2CCN(C(=O)c3ccco3)CC2)sc(C)c1C,"inconclusive: 4.61 µM [cytotoxic, partial curve]"
4,CC1Cc2ccccc2N1C(=O)C1CCCCN1S(=O)(=O)c1ccccc1 (stereo not drawn),"inconclusive: 11.6 µM [cytotoxic, partial curve, poor fit]"
5,Cc1cccc2sc(NC(=O)CCNS(=O)(=O)c3cccc4nonc34)nc12,active: 23.1 µM
6,COc1ccccc1NC(=O)C1=C(C)NC(SCC(=O)Nc2ccc(C(=O)O)cc2)=C(C#N)C1c1cccs1 (stereo not drawn),inactive
7,Cc1cccc(C(=O)N/N=C/c2ccoc2)c1,"inconclusive: 20.6 µM [rising, partial curve, poor fit]"
8,NC(=O)c1ccccc1NC(=O)CC12CC3CC(CC(C3)C1)C2,inactive
9,COc1ccc(-c2noc(CSc3nnc(C)n3-c3ccc(F)cc3)n2)cc1,inactive
10,O=C(Nc1ccc(NC(=O)c2sc3ccccc3c2Cl)cc1)c1ccco1,inactive
11,NC(=O)[C@H](Cc1cc2ccccc2s1)NC(=O)[C@@H]1CC2(CC(c3cccc(NC(=O)[C@@H]4CCC(=O)N4)c3)=NO2)CN1C(=O)/C=C/c1c(F)cccc1Cl (stereo partly drawn),"inconclusive: 29.1 µM [rising, single point]"
12,CC(=O)Nc1ccc(S(=O)(=O)c2c(N)n(CCN3CCOCC3)c3nc4ccccc4nc23)cc1,inactive
13,CCOC(=O)c1sc2nccc(N(C)C)c2c1N=CNOCc1c(F)cccc1Cl,"inconclusive: 10.3 µM [cytotoxic, partial curve, poor fit]"
14,O=C(O)Cc1sc(Nc2cccc3ccccc23)nc1-c1ccc(Cl)cc1,inactive
15,COc1cc(C2c3[nH]c4ccccc4c3CC3COC(=O)N32)cc(OC)c1O (stereo not drawn),"inconclusive: 5.17 µM [cytotoxic, partial curve, poor fit]"
16,O=C(NC(=S)Nc1ccccc1)c1ccc(-c2ccccc2)cc1,"inconclusive: 6.51 µM [rising, partial curve]"
17,CCOc1ccc(S(=O)(=O)NCCCn2ccnc2)cc1,"inconclusive: 0.58 µM [rising, full curve, poor fit]"
18,CCc1sc(N(C(=O)Cc2ccccc2)c2ccccc2)nc1-c1ccccc1,"inconclusive: 3.66 µM [cytotoxic, partial curve]"
19,N#Cc1cccc(NC(=O)CN2NS(=O)(=O)c3ccccc3C2=O)c1,"inconclusive: 20.6 µM [rising, partial curve, poor fit]"
20,CC(C)CCOP(=O)(c1ccc(N(C)C)cc1)C(O)c1ccc(Cl)cc1Cl (stereo not drawn),"inconclusive: 29.1 µM [cytotoxic, single point]"
21,CCN(CC)C(=O)C1CCCN(C(=S)Nc2cccc3ccccc23)C1 (stereo not drawn),"inconclusive: 18.4 µM [cytotoxic, single point]"
22,CCCCCCCCCCCCCCCC[n+]1ccc(/C=C/c2c(C)[nH]c3ccccc23)cc1,inactive
